{"sequences": {"note": "Chains of the proteins cited; added tags and fusions are not shown. Lines headed by an entry give the natural chain unless they say otherwise; changes in a name come on top.", "UniProt Q14161": "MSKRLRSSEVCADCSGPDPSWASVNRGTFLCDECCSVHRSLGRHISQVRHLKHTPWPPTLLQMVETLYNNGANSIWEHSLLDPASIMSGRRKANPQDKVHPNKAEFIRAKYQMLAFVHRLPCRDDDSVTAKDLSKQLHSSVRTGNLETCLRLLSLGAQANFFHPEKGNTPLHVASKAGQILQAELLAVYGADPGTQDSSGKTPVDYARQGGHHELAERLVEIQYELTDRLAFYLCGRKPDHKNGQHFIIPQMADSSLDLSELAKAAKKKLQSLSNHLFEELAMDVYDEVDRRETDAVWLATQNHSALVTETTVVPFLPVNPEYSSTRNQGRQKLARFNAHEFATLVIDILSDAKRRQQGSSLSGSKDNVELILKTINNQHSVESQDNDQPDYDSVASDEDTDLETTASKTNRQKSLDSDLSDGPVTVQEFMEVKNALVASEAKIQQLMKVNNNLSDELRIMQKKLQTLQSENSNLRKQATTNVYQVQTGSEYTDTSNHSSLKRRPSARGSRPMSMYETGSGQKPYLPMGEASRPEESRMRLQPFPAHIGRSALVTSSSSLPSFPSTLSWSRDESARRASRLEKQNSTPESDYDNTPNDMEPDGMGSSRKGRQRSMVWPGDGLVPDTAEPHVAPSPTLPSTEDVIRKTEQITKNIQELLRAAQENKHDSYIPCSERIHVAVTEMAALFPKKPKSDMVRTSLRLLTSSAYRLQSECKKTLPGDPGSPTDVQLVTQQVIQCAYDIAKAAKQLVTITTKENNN", "UniProt Q2TAP0": "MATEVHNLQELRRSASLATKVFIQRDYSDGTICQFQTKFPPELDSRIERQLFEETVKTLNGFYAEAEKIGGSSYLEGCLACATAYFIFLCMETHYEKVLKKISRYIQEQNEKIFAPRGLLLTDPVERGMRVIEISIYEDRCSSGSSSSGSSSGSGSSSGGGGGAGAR", "UniProt Q9Y4H4": "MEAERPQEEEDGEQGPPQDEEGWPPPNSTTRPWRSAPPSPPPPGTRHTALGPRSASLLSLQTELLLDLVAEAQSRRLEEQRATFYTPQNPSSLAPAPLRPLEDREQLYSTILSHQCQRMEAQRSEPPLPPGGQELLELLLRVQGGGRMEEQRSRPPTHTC", "UniProt Q8NBJ4": "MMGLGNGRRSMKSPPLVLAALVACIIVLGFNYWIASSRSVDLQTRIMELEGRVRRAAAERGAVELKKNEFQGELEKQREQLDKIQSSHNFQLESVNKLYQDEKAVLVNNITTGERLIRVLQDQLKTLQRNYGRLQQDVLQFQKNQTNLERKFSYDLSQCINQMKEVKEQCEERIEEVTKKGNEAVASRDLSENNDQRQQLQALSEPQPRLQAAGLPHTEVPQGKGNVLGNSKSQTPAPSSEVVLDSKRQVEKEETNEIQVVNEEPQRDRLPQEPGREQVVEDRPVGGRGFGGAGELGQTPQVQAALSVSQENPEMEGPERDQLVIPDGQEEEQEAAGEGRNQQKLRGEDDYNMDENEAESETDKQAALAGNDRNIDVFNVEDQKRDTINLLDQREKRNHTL", "UniProt Q86SX6": "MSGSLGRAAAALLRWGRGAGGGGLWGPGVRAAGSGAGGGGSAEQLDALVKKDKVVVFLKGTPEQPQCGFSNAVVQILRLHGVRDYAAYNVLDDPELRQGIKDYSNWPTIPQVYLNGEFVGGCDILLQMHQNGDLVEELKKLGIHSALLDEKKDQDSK", "UniProt Q9NPB8": "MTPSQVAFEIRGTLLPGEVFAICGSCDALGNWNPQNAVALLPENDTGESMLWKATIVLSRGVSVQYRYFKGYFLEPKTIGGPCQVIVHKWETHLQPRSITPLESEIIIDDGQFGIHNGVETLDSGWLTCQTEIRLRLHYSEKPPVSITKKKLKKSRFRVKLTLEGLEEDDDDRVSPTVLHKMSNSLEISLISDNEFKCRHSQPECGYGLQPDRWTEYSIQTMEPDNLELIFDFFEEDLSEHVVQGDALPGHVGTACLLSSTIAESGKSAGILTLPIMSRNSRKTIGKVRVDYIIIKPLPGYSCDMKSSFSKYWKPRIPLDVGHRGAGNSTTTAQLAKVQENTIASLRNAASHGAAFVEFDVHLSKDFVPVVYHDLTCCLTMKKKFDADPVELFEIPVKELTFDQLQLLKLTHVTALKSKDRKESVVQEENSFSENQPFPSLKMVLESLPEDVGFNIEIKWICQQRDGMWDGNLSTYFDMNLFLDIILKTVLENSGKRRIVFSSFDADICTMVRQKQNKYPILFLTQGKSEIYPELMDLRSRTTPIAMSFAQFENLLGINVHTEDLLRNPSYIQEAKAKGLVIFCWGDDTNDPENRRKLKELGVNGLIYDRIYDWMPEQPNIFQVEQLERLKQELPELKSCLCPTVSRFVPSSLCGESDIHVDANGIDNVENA", "UniProt Q86V85": "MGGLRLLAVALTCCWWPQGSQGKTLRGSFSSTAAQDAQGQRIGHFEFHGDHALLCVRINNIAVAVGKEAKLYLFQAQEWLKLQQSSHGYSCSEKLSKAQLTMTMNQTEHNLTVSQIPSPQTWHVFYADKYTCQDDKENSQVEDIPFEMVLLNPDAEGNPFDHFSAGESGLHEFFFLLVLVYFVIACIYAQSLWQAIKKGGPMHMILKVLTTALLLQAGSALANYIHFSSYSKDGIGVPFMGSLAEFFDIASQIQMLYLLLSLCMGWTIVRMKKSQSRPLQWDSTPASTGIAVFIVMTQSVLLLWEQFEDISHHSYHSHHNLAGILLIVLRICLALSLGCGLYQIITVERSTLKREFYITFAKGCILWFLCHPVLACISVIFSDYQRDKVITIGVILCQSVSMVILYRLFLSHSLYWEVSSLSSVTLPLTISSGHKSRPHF", "UniProt Q9HCN6": "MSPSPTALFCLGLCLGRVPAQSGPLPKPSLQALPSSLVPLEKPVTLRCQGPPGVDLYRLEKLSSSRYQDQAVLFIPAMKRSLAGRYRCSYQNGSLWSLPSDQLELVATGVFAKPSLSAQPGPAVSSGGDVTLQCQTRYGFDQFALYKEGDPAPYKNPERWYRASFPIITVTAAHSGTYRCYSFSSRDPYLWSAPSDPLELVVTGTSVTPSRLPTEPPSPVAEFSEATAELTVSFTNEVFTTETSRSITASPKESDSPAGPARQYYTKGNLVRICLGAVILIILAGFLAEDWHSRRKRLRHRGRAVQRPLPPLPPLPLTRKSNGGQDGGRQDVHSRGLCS", "UniProt Q8WWB7": "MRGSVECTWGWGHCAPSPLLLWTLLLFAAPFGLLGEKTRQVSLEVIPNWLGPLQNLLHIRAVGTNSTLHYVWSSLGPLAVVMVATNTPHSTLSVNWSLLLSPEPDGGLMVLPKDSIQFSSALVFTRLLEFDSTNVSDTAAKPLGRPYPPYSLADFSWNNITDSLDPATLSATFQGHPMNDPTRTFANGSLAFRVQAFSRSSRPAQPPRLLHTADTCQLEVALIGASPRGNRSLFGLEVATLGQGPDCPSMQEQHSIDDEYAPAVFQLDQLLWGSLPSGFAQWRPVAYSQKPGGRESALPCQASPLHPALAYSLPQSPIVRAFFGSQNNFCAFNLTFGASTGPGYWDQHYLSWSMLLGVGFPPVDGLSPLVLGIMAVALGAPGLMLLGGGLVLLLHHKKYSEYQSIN", "UniProt Q8TD30": "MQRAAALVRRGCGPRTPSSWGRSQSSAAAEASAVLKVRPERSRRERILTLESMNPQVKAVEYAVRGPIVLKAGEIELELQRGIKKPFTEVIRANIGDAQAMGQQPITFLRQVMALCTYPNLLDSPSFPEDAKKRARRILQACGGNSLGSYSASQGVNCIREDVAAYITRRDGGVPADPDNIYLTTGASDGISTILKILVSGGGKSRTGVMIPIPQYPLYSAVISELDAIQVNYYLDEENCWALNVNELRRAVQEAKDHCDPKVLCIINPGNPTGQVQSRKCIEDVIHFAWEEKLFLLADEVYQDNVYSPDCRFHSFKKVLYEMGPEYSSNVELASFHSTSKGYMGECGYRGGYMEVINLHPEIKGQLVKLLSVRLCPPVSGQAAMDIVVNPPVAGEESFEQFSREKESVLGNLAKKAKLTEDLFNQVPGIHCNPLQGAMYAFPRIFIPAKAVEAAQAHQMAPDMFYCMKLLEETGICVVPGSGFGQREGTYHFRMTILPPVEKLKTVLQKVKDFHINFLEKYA", "UniProt Q9H4A5": "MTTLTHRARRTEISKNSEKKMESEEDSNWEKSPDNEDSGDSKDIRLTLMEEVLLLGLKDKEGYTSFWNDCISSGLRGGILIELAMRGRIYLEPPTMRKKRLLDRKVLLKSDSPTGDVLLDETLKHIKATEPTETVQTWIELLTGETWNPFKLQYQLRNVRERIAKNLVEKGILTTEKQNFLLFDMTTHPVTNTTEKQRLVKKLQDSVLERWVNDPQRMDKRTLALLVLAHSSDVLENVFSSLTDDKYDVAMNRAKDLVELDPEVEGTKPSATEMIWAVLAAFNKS", "UniProt Q9NPR9": "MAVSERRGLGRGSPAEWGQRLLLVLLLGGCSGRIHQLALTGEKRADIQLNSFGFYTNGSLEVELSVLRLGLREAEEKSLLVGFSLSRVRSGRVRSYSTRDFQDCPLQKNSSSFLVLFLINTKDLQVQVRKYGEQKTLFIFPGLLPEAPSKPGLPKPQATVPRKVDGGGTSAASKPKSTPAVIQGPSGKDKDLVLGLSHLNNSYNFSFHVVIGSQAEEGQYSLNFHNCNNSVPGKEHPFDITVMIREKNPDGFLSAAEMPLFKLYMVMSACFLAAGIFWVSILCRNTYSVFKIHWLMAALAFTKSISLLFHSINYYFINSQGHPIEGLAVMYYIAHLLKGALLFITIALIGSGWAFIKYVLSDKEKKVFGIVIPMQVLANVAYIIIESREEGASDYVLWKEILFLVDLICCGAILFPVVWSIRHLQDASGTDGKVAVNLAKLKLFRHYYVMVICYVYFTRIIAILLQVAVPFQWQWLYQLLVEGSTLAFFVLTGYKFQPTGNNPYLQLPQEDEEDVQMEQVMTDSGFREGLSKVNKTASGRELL", "UniProt Q53EU6": "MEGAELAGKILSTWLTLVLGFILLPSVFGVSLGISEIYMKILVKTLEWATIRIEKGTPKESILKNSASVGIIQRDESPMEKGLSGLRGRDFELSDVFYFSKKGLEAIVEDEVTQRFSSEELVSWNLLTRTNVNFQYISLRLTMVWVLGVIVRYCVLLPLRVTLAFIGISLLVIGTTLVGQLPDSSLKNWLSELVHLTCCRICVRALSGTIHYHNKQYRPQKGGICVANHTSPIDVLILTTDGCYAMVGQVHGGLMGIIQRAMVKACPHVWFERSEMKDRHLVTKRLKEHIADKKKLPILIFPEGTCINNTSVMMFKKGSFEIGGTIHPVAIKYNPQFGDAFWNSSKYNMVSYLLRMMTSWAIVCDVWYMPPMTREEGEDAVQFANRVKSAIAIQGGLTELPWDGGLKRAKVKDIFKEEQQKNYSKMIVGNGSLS", "UniProt Q9Y2X7": "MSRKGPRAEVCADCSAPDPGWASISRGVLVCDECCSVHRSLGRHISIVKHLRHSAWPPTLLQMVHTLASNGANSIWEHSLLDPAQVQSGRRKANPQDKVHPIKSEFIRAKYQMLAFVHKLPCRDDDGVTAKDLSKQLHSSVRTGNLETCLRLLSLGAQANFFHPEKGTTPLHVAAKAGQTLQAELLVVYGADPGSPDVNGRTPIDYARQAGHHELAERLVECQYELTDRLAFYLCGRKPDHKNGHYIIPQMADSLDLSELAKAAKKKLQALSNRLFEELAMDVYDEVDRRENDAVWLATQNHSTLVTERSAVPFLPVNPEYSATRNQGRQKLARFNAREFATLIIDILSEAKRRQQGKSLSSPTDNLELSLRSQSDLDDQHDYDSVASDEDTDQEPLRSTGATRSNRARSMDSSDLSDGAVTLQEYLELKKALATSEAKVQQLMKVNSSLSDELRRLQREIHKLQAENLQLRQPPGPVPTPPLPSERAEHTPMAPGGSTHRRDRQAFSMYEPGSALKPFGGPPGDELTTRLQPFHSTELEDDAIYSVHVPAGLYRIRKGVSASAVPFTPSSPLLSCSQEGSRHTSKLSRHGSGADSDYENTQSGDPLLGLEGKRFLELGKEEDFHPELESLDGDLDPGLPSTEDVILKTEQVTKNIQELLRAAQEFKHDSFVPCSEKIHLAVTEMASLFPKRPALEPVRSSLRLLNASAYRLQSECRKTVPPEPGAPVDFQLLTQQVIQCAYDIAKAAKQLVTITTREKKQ", "UniProt Q13227": "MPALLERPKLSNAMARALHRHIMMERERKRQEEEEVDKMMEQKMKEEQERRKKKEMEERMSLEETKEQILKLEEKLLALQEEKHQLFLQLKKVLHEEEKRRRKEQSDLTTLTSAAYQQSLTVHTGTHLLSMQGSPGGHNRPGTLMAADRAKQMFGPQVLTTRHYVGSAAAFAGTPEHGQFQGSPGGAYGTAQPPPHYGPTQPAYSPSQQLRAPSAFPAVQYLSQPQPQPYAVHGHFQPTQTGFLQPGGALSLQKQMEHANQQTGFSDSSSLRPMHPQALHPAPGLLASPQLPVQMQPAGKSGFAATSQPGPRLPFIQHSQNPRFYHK", "UniProt Q9H4G4": "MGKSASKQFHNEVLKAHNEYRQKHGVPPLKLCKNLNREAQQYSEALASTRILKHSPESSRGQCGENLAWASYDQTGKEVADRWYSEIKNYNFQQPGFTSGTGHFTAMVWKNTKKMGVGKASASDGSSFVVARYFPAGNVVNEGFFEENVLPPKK"}, "source": "the supplement of paper PMC10849652", "note": "The list shows a part of the results."}
{"compound": "FC(F)(F)c1ccc(/C=C/c2nc(COc3ccc(CCCCn4ccnn4)cc3)co2)cc1 [mubritinib]", "assay": "log2 fold change, soluble protein after heating vs DMSO (PISA); higher = thermal stabilisation; K562 cells, 10 uM, 30 min; active = over 0.2 and 3.5 SD of the protein, either way, in both replicates (recomputed)", "how_it_was_run": "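K562 cells at 2×10^6 cells/mL were exposed to 10 μM compound for 30 min, then aliquots were heated for 3 min across 48°C-58°C, pooled, and extracted in PBS containing 0.5% NP-40 at 4°C. The supernatant after 21,000xg for 90 min was taken as soluble protein and measured by TMTpro 16plex LC-MS/MS with channel sums equalised. Thermal stability is reported relative to control samples, with values from duplicates. Fold changes are given on a log2 scale.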"}
{"target": "GIT2 (UniProt Q14161)", "log2 fold change": "inactive: 0.06"}
{"target": "GOLGA7B (UniProt Q2TAP0)", "log2 fold change": "inactive: 0.052"}
{"target": "GPSM3 (UniProt Q9Y4H4)", "log2 fold change": "inactive: 0.093"}
{"target": "GOLM1 (UniProt Q8NBJ4)", "log2 fold change": "inactive: -0.093"}
{"target": "GOSR1 (UniProt E9PCW1)", "log2 fold change": "inactive: -0.158"}
{"target": "GLRX5 (UniProt Q86SX6)", "log2 fold change": "inactive: -0.032"}
{"target": "GPCPD1 (UniProt Q9NPB8)", "log2 fold change": "inactive: 0.143"}
{"target": "GPR180 (UniProt Q86V85)", "log2 fold change": "inactive: 0.207"}
{"target": "GP6 isoform 3 (UniProt Q9HCN6)", "log2 fold change": "inactive: 0.015"}
{"target": "GLMP (UniProt Q8WWB7)", "log2 fold change": "inactive: -0.004"}
{"target": "GPT2 (UniProt Q8TD30)", "log2 fold change": "inactive: 0.013"}
{"target": "GOLPH3L (UniProt Q9H4A5)", "log2 fold change": "inactive: -0.225"}
{"target": "GPR108 (UniProt Q9NPR9)", "log2 fold change": "inactive: 0.03"}
{"target": "GNL2 (UniProt Q13823)", "log2 fold change": "inactive: 0.03"}
{"target": "GPAT3 (UniProt Q53EU6)", "log2 fold change": "inactive: -0.006"}
{"target": "GON4L (UniProt Q3T8J9)", "log2 fold change": "inactive: 0.077"}
{"target": "GIT1 isoform 3 (UniProt Q9Y2X7)", "log2 fold change": "inactive: -0.101"}
{"target": "GPS2 (UniProt Q13227)", "log2 fold change": "inactive: -0.059"}
{"target": "GLIPR2 (UniProt Q9H4G4)", "log2 fold change": "inactive: 0.054"}
